This is one part of the list.

Chains of the proteins cited; added tags and fusions are not shown. Lines headed by an entry give the natural chain unless they say otherwise; changes in a name come on top.
UniProt Q92878: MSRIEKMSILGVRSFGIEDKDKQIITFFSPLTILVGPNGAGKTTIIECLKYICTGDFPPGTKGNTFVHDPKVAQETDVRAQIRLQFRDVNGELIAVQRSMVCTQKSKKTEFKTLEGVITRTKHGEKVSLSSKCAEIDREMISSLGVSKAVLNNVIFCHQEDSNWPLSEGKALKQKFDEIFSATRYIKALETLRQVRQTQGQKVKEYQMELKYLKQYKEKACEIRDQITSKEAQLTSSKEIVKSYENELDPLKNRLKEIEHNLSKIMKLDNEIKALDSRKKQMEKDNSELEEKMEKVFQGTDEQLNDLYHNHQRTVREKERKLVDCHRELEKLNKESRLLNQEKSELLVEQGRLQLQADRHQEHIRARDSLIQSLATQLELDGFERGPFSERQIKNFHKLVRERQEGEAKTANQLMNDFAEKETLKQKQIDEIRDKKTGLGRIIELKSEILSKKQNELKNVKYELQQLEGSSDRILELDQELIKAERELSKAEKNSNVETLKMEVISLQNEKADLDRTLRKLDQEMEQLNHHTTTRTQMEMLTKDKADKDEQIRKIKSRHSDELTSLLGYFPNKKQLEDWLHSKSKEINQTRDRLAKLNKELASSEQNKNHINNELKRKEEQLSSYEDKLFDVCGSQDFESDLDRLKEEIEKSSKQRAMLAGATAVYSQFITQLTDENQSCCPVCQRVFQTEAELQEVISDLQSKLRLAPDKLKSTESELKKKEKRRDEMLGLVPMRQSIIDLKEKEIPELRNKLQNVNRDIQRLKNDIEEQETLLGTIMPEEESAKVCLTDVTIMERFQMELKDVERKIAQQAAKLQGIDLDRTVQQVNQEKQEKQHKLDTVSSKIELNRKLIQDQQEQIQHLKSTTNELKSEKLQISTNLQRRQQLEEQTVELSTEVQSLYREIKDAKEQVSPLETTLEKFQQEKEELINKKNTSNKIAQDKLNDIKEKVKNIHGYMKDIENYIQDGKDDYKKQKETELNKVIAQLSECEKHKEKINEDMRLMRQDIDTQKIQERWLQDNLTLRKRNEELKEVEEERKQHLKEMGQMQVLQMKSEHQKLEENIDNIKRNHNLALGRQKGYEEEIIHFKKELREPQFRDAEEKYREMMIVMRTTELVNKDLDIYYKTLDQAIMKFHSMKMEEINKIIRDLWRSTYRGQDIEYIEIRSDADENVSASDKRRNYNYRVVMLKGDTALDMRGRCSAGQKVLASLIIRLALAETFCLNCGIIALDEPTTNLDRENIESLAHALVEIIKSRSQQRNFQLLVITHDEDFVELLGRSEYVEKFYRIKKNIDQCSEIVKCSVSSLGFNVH
UniProt P49756, whole entry, looked up: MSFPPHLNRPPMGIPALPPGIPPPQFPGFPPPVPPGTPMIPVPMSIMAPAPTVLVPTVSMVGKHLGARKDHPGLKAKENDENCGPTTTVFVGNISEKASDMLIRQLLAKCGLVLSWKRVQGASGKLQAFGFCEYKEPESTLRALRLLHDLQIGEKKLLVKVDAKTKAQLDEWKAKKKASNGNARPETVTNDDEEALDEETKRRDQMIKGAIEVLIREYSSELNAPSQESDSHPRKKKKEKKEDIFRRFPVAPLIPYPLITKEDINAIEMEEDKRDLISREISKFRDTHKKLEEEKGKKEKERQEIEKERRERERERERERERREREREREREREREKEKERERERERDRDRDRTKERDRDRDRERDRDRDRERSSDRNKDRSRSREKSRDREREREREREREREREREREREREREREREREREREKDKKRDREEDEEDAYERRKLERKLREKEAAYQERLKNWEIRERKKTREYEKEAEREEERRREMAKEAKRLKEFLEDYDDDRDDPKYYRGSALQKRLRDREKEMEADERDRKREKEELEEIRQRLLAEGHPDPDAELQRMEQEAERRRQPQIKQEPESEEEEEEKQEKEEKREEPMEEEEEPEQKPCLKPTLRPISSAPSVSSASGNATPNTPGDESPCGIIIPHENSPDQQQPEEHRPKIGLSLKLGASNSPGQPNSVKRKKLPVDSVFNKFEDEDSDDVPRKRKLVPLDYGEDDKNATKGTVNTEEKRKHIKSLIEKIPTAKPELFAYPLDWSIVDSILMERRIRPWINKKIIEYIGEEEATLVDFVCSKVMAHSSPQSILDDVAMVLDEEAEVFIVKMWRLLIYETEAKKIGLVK
UniProt Q15291, whole entry, looked up: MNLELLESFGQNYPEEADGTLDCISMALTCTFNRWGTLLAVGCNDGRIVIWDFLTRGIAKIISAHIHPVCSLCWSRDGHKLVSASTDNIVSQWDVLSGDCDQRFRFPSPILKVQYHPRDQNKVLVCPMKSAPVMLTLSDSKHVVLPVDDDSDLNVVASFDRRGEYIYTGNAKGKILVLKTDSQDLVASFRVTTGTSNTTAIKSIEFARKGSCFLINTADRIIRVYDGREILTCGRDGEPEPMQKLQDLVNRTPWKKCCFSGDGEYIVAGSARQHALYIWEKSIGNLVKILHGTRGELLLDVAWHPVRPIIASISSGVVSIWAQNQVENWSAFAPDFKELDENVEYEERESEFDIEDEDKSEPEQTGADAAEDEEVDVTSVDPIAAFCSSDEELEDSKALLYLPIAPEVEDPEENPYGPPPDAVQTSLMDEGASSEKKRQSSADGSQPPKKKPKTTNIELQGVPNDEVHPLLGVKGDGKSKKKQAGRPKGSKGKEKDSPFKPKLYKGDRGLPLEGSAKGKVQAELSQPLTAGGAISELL
UniProt Q9H082: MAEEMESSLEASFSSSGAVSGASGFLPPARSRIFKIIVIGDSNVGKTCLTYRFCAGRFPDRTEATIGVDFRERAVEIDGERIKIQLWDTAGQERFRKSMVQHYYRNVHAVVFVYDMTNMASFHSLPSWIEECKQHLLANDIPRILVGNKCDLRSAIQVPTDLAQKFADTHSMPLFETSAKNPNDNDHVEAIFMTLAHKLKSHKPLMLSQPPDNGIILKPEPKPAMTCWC
UniProt Q9BUV8: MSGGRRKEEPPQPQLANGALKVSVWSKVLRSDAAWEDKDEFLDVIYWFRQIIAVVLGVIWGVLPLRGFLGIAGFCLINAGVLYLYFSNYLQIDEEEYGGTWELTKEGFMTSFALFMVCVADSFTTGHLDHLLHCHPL
UniProt Q92930: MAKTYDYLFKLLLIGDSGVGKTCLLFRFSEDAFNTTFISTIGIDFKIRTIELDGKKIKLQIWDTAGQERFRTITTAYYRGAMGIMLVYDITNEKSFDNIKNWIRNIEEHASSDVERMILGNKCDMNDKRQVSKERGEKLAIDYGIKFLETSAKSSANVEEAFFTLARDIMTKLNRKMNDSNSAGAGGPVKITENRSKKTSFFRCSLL
UniProt Q9P0K7: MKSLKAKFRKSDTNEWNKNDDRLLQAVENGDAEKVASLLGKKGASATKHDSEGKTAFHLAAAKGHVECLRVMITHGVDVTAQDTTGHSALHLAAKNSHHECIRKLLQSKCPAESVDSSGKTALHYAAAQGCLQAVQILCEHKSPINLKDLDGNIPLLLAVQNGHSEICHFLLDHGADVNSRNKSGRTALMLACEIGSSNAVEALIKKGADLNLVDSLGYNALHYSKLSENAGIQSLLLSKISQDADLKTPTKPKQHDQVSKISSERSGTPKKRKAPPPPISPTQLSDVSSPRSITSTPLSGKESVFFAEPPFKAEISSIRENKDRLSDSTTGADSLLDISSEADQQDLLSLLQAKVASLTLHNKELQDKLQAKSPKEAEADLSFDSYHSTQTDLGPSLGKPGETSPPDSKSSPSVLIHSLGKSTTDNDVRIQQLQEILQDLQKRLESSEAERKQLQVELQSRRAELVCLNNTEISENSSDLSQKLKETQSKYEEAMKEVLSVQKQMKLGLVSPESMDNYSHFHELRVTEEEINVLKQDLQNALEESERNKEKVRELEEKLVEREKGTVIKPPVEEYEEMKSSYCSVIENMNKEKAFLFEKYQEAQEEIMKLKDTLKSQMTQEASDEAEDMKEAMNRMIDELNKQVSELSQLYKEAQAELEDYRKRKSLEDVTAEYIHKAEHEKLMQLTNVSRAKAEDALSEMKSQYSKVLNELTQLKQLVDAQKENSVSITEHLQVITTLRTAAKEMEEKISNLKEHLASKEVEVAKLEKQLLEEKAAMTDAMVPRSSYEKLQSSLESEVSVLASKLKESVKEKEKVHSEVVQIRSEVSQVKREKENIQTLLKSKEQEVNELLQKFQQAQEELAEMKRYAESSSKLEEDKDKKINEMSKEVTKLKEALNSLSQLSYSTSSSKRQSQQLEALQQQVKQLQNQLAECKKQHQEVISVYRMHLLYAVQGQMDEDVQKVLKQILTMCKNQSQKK
UniProt Q15771: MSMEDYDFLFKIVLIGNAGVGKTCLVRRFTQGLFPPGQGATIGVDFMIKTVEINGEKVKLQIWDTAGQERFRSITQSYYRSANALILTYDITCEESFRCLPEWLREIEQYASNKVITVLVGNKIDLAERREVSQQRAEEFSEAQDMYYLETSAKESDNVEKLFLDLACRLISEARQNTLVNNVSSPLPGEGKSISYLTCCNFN
UniProt Q6WKZ4: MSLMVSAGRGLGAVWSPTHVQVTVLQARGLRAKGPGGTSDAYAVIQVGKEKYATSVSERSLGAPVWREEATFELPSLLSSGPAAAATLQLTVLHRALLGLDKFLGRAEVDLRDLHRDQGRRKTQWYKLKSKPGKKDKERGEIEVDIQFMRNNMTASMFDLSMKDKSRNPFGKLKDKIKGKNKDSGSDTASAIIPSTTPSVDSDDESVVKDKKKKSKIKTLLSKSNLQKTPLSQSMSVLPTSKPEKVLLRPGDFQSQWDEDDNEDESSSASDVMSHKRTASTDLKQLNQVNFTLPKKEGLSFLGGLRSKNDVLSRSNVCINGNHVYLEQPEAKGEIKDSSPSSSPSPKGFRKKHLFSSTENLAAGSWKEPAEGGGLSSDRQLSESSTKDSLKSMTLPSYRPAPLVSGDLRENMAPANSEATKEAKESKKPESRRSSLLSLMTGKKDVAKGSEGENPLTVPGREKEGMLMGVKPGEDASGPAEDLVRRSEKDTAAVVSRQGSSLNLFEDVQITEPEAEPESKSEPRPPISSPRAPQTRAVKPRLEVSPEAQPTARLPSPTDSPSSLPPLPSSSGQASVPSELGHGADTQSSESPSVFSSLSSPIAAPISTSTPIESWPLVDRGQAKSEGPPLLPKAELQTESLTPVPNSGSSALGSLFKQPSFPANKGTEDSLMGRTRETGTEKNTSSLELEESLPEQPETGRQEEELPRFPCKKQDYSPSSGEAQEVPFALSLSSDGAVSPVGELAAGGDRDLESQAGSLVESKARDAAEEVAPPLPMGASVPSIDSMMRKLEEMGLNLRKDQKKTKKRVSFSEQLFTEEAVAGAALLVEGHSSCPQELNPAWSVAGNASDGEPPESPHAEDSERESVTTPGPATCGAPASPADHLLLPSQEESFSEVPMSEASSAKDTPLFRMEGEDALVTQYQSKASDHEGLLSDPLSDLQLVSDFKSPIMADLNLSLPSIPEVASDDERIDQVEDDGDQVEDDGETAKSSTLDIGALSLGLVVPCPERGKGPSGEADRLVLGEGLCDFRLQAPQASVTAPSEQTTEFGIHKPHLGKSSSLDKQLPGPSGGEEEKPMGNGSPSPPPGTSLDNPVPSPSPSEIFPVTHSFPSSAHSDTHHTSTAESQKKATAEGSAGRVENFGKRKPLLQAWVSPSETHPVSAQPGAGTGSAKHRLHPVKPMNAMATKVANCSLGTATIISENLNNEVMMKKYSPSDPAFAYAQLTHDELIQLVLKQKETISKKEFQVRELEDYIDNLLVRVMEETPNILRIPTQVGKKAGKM

Compound in the first assay: C1=CC=C(C=C1)C2=NC(=C(N2)C3=CC=NC=C3)C4=CC(=C(C=C4)Cl)O
The assay is described as follows: log2 fold change, soluble protein after heating vs DMSO (PISA); higher = thermal stabilisation; K562 cells, 10 uM, 30 min; active = over 0.2 and 3.5 SD of the protein, either way, in both replicates (recomputed). The procedure, abridged: (§1)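 Soluble protein was quantified by TMTpro 16plex LC-MS/MS after channel sums were equalised. It was obtained as the supernatant after 21,000xg for 90 min from pooled aliquots of K562 cells (2×10^6 cells/mL, 10 μM compound, 30 min) heated for 3 min across 48°C-58°C and extracted in PBS with 0.5% NP-40 at 4°C. Thermal stability values are relative to control samples and come from duplicates. They are given as log2 fold changes.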
With RAB3IL1 (UniProt Q8TBN0), the log2 fold change is inactive: -0.02.

In the case of RAP2C (UniProt Q9Y3L5), the log2 fold change was inactive: 0.026.

With RABGAP1L isoform 3 (UniProt Q5R372), the log2 fold change is inactive: -0.001.

Regarding RABGGTA (UniProt Q92696), the log2 fold change was inactive: 0.036.

As for RAD50 isoform 2 (UniProt Q92878), the log2 fold change was inactive: 0.02.

For the target RBM25 (UniProt P49756), the log2 fold change was inactive: -0.012.

Take RBBP7 (UniProt Q16576): the log2 fold change is inactive: -0.109.

For the target RBM33 (UniProt Q96EV2), the log2 fold change was inactive: 0.001.

On to RBM28 (UniProt Q9NW13), for which the log2 fold change was inactive: 0.054.

For the target RBBP5 isoform 2 (UniProt Q15291), the log2 fold change was inactive: 0.066.

As for RAB33B (UniProt Q9H082), the log2 fold change is inactive: -0.079.

For RARS (UniProt P54136), the log2 fold change was inactive: -0.046.

With RBM26 isoform 2 (UniProt Q5T8P6), the log2 fold change is inactive: 0.113.

Consider RAB5IF isoform 5 (UniProt Q9BUV8), for which the log2 fold change was active: 0.373.

Take RAB8B (UniProt Q92930): the log2 fold change is inactive: 0.029.

Take RALA (UniProt P11233): the log2 fold change is inactive: -0.076.

In the case of RAB3IL1 (UniProt E9PK89), the log2 fold change was inactive: -0.028.

Consider RAVER1 (UniProt E9PAU2), for which the log2 fold change is inactive: 0.257.

Regarding RAI14 isoform 2 (UniProt Q9P0K7), the log2 fold change was inactive: 0.041.

Turning to RALY (UniProt Q9UKM9), the log2 fold change is inactive: -0.11.

RB1CC1 (UniProt Q8TDY2): the log2 fold change was inactive: 0.015.

For RAB30 (UniProt Q15771), the log2 fold change was inactive: 0.036.

In the case of RAB11FIP1 (UniProt Q6WKZ4), the log2 fold change was inactive: 0.031.

RB1 (UniProt P06400): the log2 fold change is inactive: 0.034.

Regarding RAB3GAP2 (UniProt Q9H2M9), the log2 fold change is inactive: -0.025.

For the target RAF1 isoform 2 (UniProt P04049), the log2 fold change is active: 0.513.

Compound in a further assay: C1=CC=C2C(=C1)C3=NNC4=CC=CC(=C43)C2=O
Described as above. The procedure, abridged: as §1
Consider RAB3IL1 (UniProt Q8TBN0), for which the log2 fold change is inactive: -0.039.

As for RAP2C (UniProt Q9Y3L5), the log2 fold change was inactive: 0.167.

Regarding RABGAP1L isoform 3 (UniProt Q5R372), the log2 fold change is inactive: 0.035.

For the target RABGGTA (UniProt Q92696), the log2 fold change was inactive: 0.043.

On to RAD50 isoform 2 (UniProt Q92878), for which the log2 fold change is inactive: 0.015.

Turning to RAP1B (UniProt F5GZG1), the log2 fold change is inactive: -0.031.

In the case of RBM25 (UniProt P49756), the log2 fold change was inactive: -0.008.

Take RBBP7 (UniProt Q16576): the log2 fold change was inactive: 0.028.

Consider R3HDM4 (UniProt Q96D70), for which the log2 fold change is inactive: 0.111.

With RBM33 (UniProt Q96EV2), the log2 fold change was inactive: -0.114.

For RBM28 (UniProt Q9NW13), the log2 fold change was inactive: -0.057.

RBBP5 isoform 2 (UniProt Q15291): the log2 fold change was inactive: -0.115.

RAB33B (UniProt Q9H082): the log2 fold change was inactive: 0.025.

Take RARS (UniProt P54136): the log2 fold change is inactive: -0.005.

As to RBM26 isoform 2 (UniProt Q5T8P6), the log2 fold change was inactive: 0.002.

Consider RAD51B (UniProt O15315), for which the log2 fold change was inactive: 0.

As for RAB5IF isoform 5 (UniProt Q9BUV8), the log2 fold change is inactive: 0.036.

In the case of RAB8B (UniProt Q92930), the log2 fold change is inactive: 0.012.

In the case of RACK1 (UniProt D6RHH4), the log2 fold change is inactive: -0.123.

For RALA (UniProt P11233), the log2 fold change is inactive: -0.045.

Regarding RAB3IL1 (UniProt E9PK89), the log2 fold change is inactive: 0.197.

Regarding RABGAP1L isoform 5 (UniProt Q5R372), the log2 fold change is inactive: -0.097.

In the case of RAVER1 (UniProt E9PAU2), the log2 fold change was inactive: -0.084.

Regarding RAI14 isoform 2 (UniProt Q9P0K7), the log2 fold change was inactive: -0.106.

Regarding RALY (UniProt Q9UKM9), the log2 fold change is inactive: 0.038.

In the case of RAPGEF4 (UniProt Q8WZA2), the log2 fold change is inactive: -0.014.

Take RB1CC1 (UniProt Q8TDY2): the log2 fold change is inactive: 0.03.

In the case of RAB30 (UniProt Q15771), the log2 fold change was inactive: -0.179.

With RAB11FIP1 (UniProt Q6WKZ4), the log2 fold change is inactive: 0.009.

Take RB1 (UniProt P06400): the log2 fold change is inactive: -0.114.

Consider RAB3GAP2 (UniProt Q9H2M9), for which the log2 fold change was inactive: 0.004.

As to RAF1 isoform 2 (UniProt P04049), the log2 fold change was inactive: 0.01.

Regarding RALGPS2 (UniProt Q86X27), the log2 fold change is inactive: -0.012.

The record behind these values is the supplement of paper PMC10849652.
